Test results from paper PMC2873402, “Discovery of High-Affinity Protein Binding Ligands – Backwards” (PLoS ONE, 2010).
Results are given in words; binding and its absence hold for the method and conditions named. Some entries that bind do so weakly or less than the wild type.

Amino acid sequences for entries named in this document (tags omitted).
UniProt P31749: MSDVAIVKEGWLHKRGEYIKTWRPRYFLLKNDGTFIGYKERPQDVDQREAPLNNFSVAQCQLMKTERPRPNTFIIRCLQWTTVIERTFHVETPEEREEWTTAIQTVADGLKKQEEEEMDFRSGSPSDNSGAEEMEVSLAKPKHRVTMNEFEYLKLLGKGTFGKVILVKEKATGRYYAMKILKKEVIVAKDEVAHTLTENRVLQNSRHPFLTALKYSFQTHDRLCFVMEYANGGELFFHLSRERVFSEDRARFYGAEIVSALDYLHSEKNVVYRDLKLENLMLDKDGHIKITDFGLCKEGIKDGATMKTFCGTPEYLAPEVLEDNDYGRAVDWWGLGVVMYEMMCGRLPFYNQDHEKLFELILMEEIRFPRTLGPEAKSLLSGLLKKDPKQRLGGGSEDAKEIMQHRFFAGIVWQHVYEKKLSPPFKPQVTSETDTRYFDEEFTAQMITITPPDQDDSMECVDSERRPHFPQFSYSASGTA

How the values were obtained:
[1] = target: recombinant AKT1 (produced in house) (UniProt P31749); experiment: cross-linking; 10 µM peptide with 2.5 µM AKT1 in PBS for one hour, then 100 µM BS^3-d0/BS^3-d4 (1:1) for one hour; trypsin digest; MALDI-TOF-MS; both purified
AKT1 = AKT1 (Homo sapiens, UniProt P31749); experiment: SPR; individual peptides over immobilized AKT1 at high immobilization levels (15,584 RU, peptide 1 at 1.88, 0.94 and 0.47 µM; 19,912 RU, peptide 2 at 20, 10 and 1 µM); both purified

Row | Binder | binding [1] | binding (AKT1)
1 | AHKVVPQRQIRHAYNRYGSG [peptide 1] | binds | binds weakly
2 | FRGWAHIFFGPHVIYRGGSG [peptide 2] | binds | binds weakly
